Survivor count and T/C data for 27 molecules are collected here from PubChem BioAssay AID248 (DTP/NCI, 2004).

The test system of the assay is L1210 leukemia ip in BDF1 mice, survival T/C. Description: NCI In Vivo Anticancer Drug Screen. Data for tumor model L1210 Leukemia (intraperitoneal) in B6D2F1 (BDF1) mice. The conditions noted are these: T/C endpoint: mean survival time, higher T/C = longer survival.
[1] abbreviates: dose: 200.0 mg/kg/injection, schedule: Q01DX001 (ip), vehicle: saline.
The mark [2] stands for this setting: dose: 400.0 mg/kg/injection, schedule: Q01DX001 (ip), vehicle: saline.
[3] abbreviates: dose: 10.0 mg/kg/injection, schedule: Q01DX015 (ip), vehicle: water.
[4] abbreviates: dose: 10.0 mg/kg/injection, schedule: Q01DX Z (ip), vehicle: water.
Where [5] appears, read: dose: 15.0 mg/kg/injection, schedule: Q01DX Z (ip), vehicle: water.
Where [6] appears, read: dose: 20.0 mg/kg/injection, schedule: Q01DX Z (ip), vehicle: water.
Setting [7] is: dose: 100.0 mg/kg/injection, schedule: Q01DX009 (ip), vehicle: saline with Tween-80.
The mark [8] stands for this setting: dose: 400.0 mg/kg/injection, schedule: Q01DX009 (ip), vehicle: saline with Tween-80.
The mark [9] stands for this setting: dose: 75.0 mg/kg/injection, schedule: Q01DX001 (ip), vehicle: saline.
[10] abbreviates: dose: 150.0 mg/kg/injection, schedule: Q01DX001 (ip), vehicle: saline.
Setting [11] is: dose: 300.0 mg/kg/injection, schedule: Q01DX001 (ip), vehicle: saline.
Setting [12] is: dose: 400.0 mg/kg/injection, schedule: Q01DX009 (ip), vehicle: saline.
[13] abbreviates: dose: 100.0 mg/kg/injection, schedule: Q01DX009 (ip), vehicle: saline.
The mark [14] stands for this setting: dose: 200.0 mg/kg/injection, schedule: Q01DX009 (ip), vehicle: saline.
Setting [15] is: dose: 400.0 mg/kg/injection, schedule: Q04DX003 (ip), vehicle: saline with Tween-80.

The list shows only some results of the screen, not a fair sample: it gathers tests that were run many times, whatever their T/C, doses with no T/C, and many T/C values between a quarter and a half above the control. Other doses and runs of a compound stand elsewhere. T/C is the treated group as % of the vehicle group. Some doses have a count of surviving animals in place of a T/C: the source holds a T/C of zero for them, seemingly a mark for toxic or unscored doses. Some doses without a T/C left all or most animals alive at the check, yet need not have been tolerated: the source hardly ever lists a survival T/C far under the control, and the zero likely stands for such cases as well. Counts of survivors are from the toxicity check (mostly the fifth day) where no day follows; animals may have died later. Schedule codes are those of the source, taken here to give the interval after Q, in days (D) or hours (H), and the number of doses after X. Some schedule codes hold Z or #, which are not explained here. Some doses were run more than once; the values are given in rising order. For survival time, the PubChem record calls one and a half times the control and up active, and a quarter to a half above the control has no call in these data; cut-offs in other NCI protocols can differ. Brackets with × say how often a value occurs here.

Regarding `O=C(O)CCS`, the survivor count is, setting by setting: (dose: 100.0 mg/kg/injection, schedule: Q01DX001 (ip), vehicle: saline) 0 of 4; under setting [1], 0 of 4; under setting [2], 0 of 4.
As to `CCCCC1C(=O)N(c2ccccc2)N(c2ccccc2)C1=O`, where the note is “dose: 200.0 mg/kg/injection, schedule: Q01DX Z (ip), vehicle: water”, the survivor count was 3 of 6.
With `COc1cc2c3c(c4ccc(O)cc4c2cc1OC)[C@@H](O)[C@@H]1CCCN1C3`, the T/C was 125 (2×) and 130 % of control (dose: 5.0 mg/kg/injection, schedule: Q01DX Z (ip), vehicle: water); 140 % of control (dose: 6.0 mg/kg/injection, schedule: Q01DX Z (ip), vehicle: water); 128 % of control (dose: 9.0 mg/kg/injection, schedule: Q01DX Z (ip), vehicle: water); 137 % of control under setting [3]; 130, 132, 145 % of control under setting [4]; 130 % of control (dose: 10.0 mg/kg/injection, schedule: Q02DX005 (ip), vehicle: water). Also, the T/C (dose: 12.0 mg/kg/injection, schedule: Q01DX Z (ip), vehicle: water) was 136 % of control; the T/C under setting [5] is given as 131, 145, 153 % of control; the T/C (dose: 20.0 mg/kg/injection, schedule: Q01DX005 (ip), vehicle: water) was 125 % of control; the T/C under setting [6] was 148 % of control; the T/C (dose: 20.0 mg/kg/injection, schedule: Q02DX005 (ip), vehicle: water) is 135 % of control. In addition, the survivor count runs as follows: (dose: 7.0 mg/kg/injection, schedule: Q01DX Z (ip), vehicle: water) 0 of 6; under setting [3], 3 of 6; under setting [4], 0 of 6 and 5 of 6; (dose: 10.7 mg/kg/injection, schedule: Q01DX015 (ip), vehicle: water) 0 of 6; under setting [5], 0 of 6; (dose: 16.0 mg/kg/injection, schedule: Q01DX015 (ip), vehicle: water) 0 of 6. Also, the survivor count runs as follows: (dose: 20.0 mg/kg/injection, schedule: Q01DX015 (ip), vehicle: water) 0 of 6; under setting [6], 0 of 6; (dose: 24.0 mg/kg/injection, schedule: Q01DX015 (ip), vehicle: water) 0 of 6; (dose: 40.0 mg/kg/injection, schedule: Q01DX009 (oral), vehicle: water) 6 of 6; (dose: 40.0 mg/kg/injection, schedule: Q01DX015 (ip), vehicle: water) 0 of 6.
With `O=C(N/N=C\c1cc(Cl)cc(Cl)c1O)c1cccnc1`, the survivor count (dose: 400.0 mg/kg/injection, schedule: Q01DX009 (ip), vehicle: Klucel (hydroxypropylcellulose) (HPC)) was 3 of 6.
With `COc1ccc2c3c1OC1C(O)C=CC4C(C2)N(C)CCC341` (configuration not stated), the survivor count is 3 of 6 under setting [1] and 0 of 6 under setting [2].
For `CCC(=O)OC1(c2ccccc2)CCN(C/C=C/c2ccc(F)cc2)CC1`, the survivor count under setting [7] is 6 of 6; the survivor count (dose: 200.0 mg/kg/injection, schedule: Q01DX009 (ip), vehicle: saline with Tween-80) is listed as 3 of 6; the survivor count under setting [8] is listed as 0 of 6.
For `CCCCCCN1CC1`, the survivor count is, setting by setting: (dose: 60.0 mg/kg/injection, schedule: Q01DX001 (ip), vehicle: saline) 1 of 6; under setting [9], 1 of 6; under setting [10], 0 of 6; under setting [11], 0 of 6.
With `CC/C=C(CC)/C(=C/CC)CC`, the survivor count under setting [12] is recorded as 1 of 6.
For the molecule `CC(CC1c2ccccc2CCc2ccccc21)CN(C)C` (configuration not stated), the survivor count under setting [13] is 3 of 6; the survivor count (dose: 200.0 mg/kg/injection, schedule: Q04DX003 (ip), vehicle: saline) is reported as 0 of 4; the survivor count (dose: 400.0 mg/kg/injection, schedule: Q04DX003 (ip), vehicle: saline) is listed as 0 of 4.
As to `CC(C)NCCC(=O)c1ccc(OCc2ccccc2)cc1`, the survivor count is 0 of 6 under setting [14] and 0 of 6 under setting [12].
For the molecule `NC(=O)CC1=NCCc2ccccc21`, the survivor count under setting [2] was 0 of 4.
For the molecule `Nc1ccccc1O`, the survivor count (dose: 100.0 mg/kg/injection, schedule: Q04DX003 (ip), vehicle: Klucel (hydroxypropylcellulose) (HPC)) is 2 of 3; the survivor count (dose: 200.0 mg/kg/injection, schedule: Q04DX003 (ip), vehicle: Klucel (hydroxypropylcellulose) (HPC)) is 0 of 3; the survivor count (dose: 400.0 mg/kg/injection, schedule: Q04DX003 (ip), vehicle: Klucel (hydroxypropylcellulose) (HPC)) is 0 of 3.
As for `O=C(NC(=S)Nc1ccccc1)c1cccc(Cl)c1`, the survivor count (dose: 300.0 mg/kg/injection, schedule: Q01DX001 (ip), vehicle: carboxymethylcellulose (CMC)) is on record as 1 of 6.
As to `O=C(Nc1ccccc1F)C(Cl)(Cl)Cl`, the survivor count (dose: 400.0 mg/kg/injection, schedule: Q04DX002 (ip), vehicle: Klucel (hydroxypropylcellulose) (HPC)) is on record as 3 of 3.
With `O=C(O)CNCc1ccc(Cl)cc1`, the survivor count runs as follows: (dose: 200.0 mg/kg/injection, schedule: Q01DX009 (ip), vehicle: water) 0 of 6; (dose: 400.0 mg/kg/injection, schedule: Q04DX003 (ip), vehicle: water) 3 of 6.
Take `CSC(=N)c1cccc(OCCCc2ccccc2)c1`: the survivor count by setting is: under setting [7], 3 of 6; under setting [8], 1 of 6.
With `C=C1CC[N+]2(C)CCCC12` (configuration not stated), the survivor count under setting [13] is 0 of 3 and the survivor count under setting [14] was 0 of 3.
Consider `CCC(C)C(C(=O)OCCN(C)C)c1ccccc1` (configuration not stated), for which the survivor count under setting [15] is 4 of 6.
On to `C=COC(=O)NC(C(=O)O)C(C)CC` (configuration not stated), for which the survivor count under setting [11] is recorded as 0 of 6.
On to `CN/N=C/c1ccc([N+](=O)[O-])o1`, for which the survivor count under setting [15] is 4 of 6.
Turning to `CCOC1=CCCCC1`, the survivor count (dose: 750.0 mg/kg/injection, schedule: Q01DX Z (ip), vehicle: methylcellulose (MC)) is 0 of 6.
In the case of `CCC[CH2][Sn]([Br])([CH2]CCC)[O]C(C)=O`, the survivor count is, setting by setting: (dose: 100.0 mg/kg/injection, schedule: Q04DX002 (ip), vehicle: other) 0 of 3; (dose: 200.0 mg/kg/injection, schedule: Q04DX002 (ip), vehicle: other) 0 of 3; (dose: 400.0 mg/kg/injection, schedule: Q04DX002 (ip), vehicle: other) 0 of 3.
On to `COC(=O)c1[nH]cnc1/N=N/N(C)C.[Cl][Cu][Cl]`, for which the survivor count (dose: 20.0 mg/kg/injection, schedule: Q01DX009 (ip), vehicle: saline) is 2 of 6; the survivor count (dose: 30.0 mg/kg/injection, schedule: Q01DX009 (ip), vehicle: saline) was 0 of 6; the survivor count under setting [9] was 0 of 6; the survivor count under setting [10] is 0 of 6; the survivor count under setting [11] is 0 of 6.
As to `CC(C)COC(C[N+](=O)[O-])C(Cl)(Cl)Cl` (configuration not stated), the survivor count under setting [8] is given as 0 of 6.
For `O=NN(CCF)C(=O)NCCCl`, the survivor count (dose: 32.0 mg/kg/injection, schedule: Q01DX001 (ip), vehicle: Klucel (hydroxypropylcellulose) (HPC)) was 6 of 10; the survivor count (dose: 48.0 mg/kg/injection, schedule: Q01DX001 (ip), vehicle: Klucel (hydroxypropylcellulose) (HPC)) is 3 of 10 and 5 of 10; the survivor count (dose: 71.0 mg/kg/injection, schedule: Q01DX001 (ip), vehicle: Klucel (hydroxypropylcellulose) (HPC)) is recorded as 0 of 10.
On to `Clc1nc(Cl)c2c(n1)NCCN2`, for which, under “dose: 200.0 mg/kg/injection, schedule: Q01DX009 (ip), vehicle: Klucel (hydroxypropylcellulose) (HPC)”, the survivor count is 0 of 3.
Regarding `Cc1cc(C)c(C(=O)OCCN(C)C)c(C)c1`, the survivor count under setting [11] is 1 of 6.
